Reference: paper PMC10101649
These are yes or no findings as the source states them, for the method shown. In cells and extracts the contact can be indirect. Here binding means that the protein was enriched with, or labelled near, the bait; the list need not be complete. Sequences can lack the tags named with a protein.

Biological target: T1, CDPK16-6×His (Arabidopsis calcium-dependent protein kinase 16) (Arabidopsis) (UniProt Q7XJR9)
T1 sequence: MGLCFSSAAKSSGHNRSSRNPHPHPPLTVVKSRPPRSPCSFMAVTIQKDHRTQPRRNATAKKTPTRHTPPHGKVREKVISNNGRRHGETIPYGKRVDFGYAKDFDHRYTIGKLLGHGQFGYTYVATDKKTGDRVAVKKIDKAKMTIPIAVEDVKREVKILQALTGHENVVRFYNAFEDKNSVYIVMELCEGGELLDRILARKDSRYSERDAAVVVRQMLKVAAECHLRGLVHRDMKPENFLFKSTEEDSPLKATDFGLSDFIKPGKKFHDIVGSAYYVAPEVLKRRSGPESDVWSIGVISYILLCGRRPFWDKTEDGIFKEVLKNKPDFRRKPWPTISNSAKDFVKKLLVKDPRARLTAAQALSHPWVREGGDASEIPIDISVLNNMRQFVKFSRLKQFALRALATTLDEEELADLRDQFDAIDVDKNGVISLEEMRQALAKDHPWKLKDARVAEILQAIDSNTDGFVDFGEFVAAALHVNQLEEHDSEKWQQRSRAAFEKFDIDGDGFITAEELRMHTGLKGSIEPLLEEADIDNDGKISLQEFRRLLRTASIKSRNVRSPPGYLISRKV
Assay: affinity purification with mass spectrometry; Ni-NTA agarose bound with CDPK16-6×His incubated with total protein extract of WT pollen; 3 washes with protein extraction buffer; bound proteins separated by 15% SDS-PAGE, gel bands analysed by LC-MS/MS; only the target purified

binding: binds
B1: ADF7 (Arabidopsis actin-depolymerizing factor 7), endogenous in pollen (protein, UniProt Q67ZM4 1-137)
chain: MANAASGMAVEDECKLKFLELKSKRNYRFIIFRIDGQQVVVEKLGNPDETYDDFTASLPANECRYAVFDFDFITDENCQKSKIFFIAWSPDSSRVRMKMVYASSKDRFKRELDGIQVELQATDPSEMSFDIIKSRAL
